# Test results published in the supplement of paper PMC11438910.
# This is one part of the list. Most of these values are background signal.
# B1: 4-173.3 (protein)
# chain 1: QLQLQESGPGLVKPSETLSLTCAVSGGSINNNYWSWIRQPPGKGLEWIGRIFGSGGSTDYNPSLKSRVTISTDTSKTQFSLNLNSVTAADTAVYFCARGSYQVDYWGQGVLVTVSS
# chain 2: QAALTQPPSMSGSPGQSVTISCTGTSSDIGGWNRVSWYQQYPGKAPKLMIYEVSKRPSGVSDRFSGSKSGNTASLTISGLQAEDEADYYCSSYVHINNALFGGGTRLTVL
# Experiments:
# Test in all cases: fluorescence intensity of antibody binding to polysaccharide-coupled beads; higher = stronger binding
# [1] = molecular target: pneumococcal polysaccharide Pn25A
# [2] = molecular target: pneumococcal polysaccharide Pn25F
# [3] = molecular target: pneumococcal polysaccharide Pn27
# [4] = molecular target: pneumococcal polysaccharide Pn28A
# [5] = molecular target: pneumococcal polysaccharide Pn28F
# [6] = molecular target: pneumococcal polysaccharide Pn29
# [7] = molecular target: pneumococcal polysaccharide Pn3
# [8] = molecular target: pneumococcal polysaccharide Pn31
# [9] = molecular target: pneumococcal polysaccharide Pn32A
# [10] = molecular target: pneumococcal polysaccharide Pn32F
# [11] = molecular target: pneumococcal polysaccharide Pn33A
# [12] = molecular target: pneumococcal polysaccharide Pn33B
# [13] = molecular target: pneumococcal polysaccharide Pn33C
# [14] = molecular target: pneumococcal polysaccharide Pn33D
# [15] = molecular target: pneumococcal polysaccharide Pn33F
# [16] = molecular target: pneumococcal polysaccharide Pn34
# [17] = molecular target: pneumococcal polysaccharide Pn35A
# [18] = molecular target: pneumococcal polysaccharide Pn35B
# [19] = molecular target: pneumococcal polysaccharide Pn35C
# [20] = molecular target: pneumococcal polysaccharide Pn35F
# [21] = molecular target: pneumococcal polysaccharide Pn36
# [22] = molecular target: pneumococcal polysaccharide Pn37
# [23] = molecular target: pneumococcal polysaccharide Pn38
# [24] = antibody concentration 0.1 ng/mL
# [25] = antibody concentration 0.534724 ng/mL
# [26] = antibody concentration 2.8593 ng/mL
# [27] = antibody concentration 15.2894 ng/mL
# [28] = antibody concentration 81.7561 ng/mL
# [29] = antibody concentration 437.17 ng/mL
# [30] = antibody concentration 2337.65 ng/mL
# [31] = antibody concentration 12500 ng/mL
binder,measurement,setting,value
B1,fluorescence intensity,[1]; [24],22 MFI
same,fluorescence intensity,[1]; [25],23 MFI
same,fluorescence intensity,[1]; [26],24 MFI
same,fluorescence intensity,[1]; [27],23.2 MFI
same,fluorescence intensity,[1]; [28],24 MFI
same,fluorescence intensity,[1]; [29],24 MFI
same,fluorescence intensity,[1]; [30],25.5 MFI
same,fluorescence intensity,[1]; [31],35 MFI
same,fluorescence intensity,[2]; [24],27.5 MFI
same,fluorescence intensity,[2]; [25],28.8 MFI
same,fluorescence intensity,[2]; [26],29.5 MFI
same,fluorescence intensity,[2]; [27],29.8 MFI
same,fluorescence intensity,[2]; [28],31 MFI
same,fluorescence intensity,[2]; [29],28.5 MFI
same,fluorescence intensity,[2]; [30],30.5 MFI
same,fluorescence intensity,[2]; [31],37 MFI
same,fluorescence intensity,[3]; [24],15.5 MFI
same,fluorescence intensity,[3]; [25],16 MFI
same,fluorescence intensity,[3]; [26],17 MFI
same,fluorescence intensity,[3]; [27],17 MFI
same,fluorescence intensity,[3]; [28],15.8 MFI
same,fluorescence intensity,[3]; [29],17 MFI
same,fluorescence intensity,[3]; [30],23.5 MFI
same,fluorescence intensity,[3]; [31],62 MFI
same,fluorescence intensity,[4]; [24],26.2 MFI
same,fluorescence intensity,[4]; [25],23.8 MFI
same,fluorescence intensity,[4]; [26],26 MFI
same,fluorescence intensity,[4]; [27],24.5 MFI
same,fluorescence intensity,[4]; [28],25.8 MFI
same,fluorescence intensity,[4]; [29],26 MFI
same,fluorescence intensity,[4]; [30],27.5 MFI
same,fluorescence intensity,[4]; [31],34.5 MFI
same,fluorescence intensity,[5]; [24],27 MFI
same,fluorescence intensity,[5]; [25],28 MFI
same,fluorescence intensity,[5]; [26],29 MFI
same,fluorescence intensity,[5]; [27],28 MFI
same,fluorescence intensity,[5]; [28],27.2 MFI
same,fluorescence intensity,[5]; [29],28.2 MFI
same,fluorescence intensity,[5]; [30],31.8 MFI
same,fluorescence intensity,[5]; [31],49.5 MFI
same,fluorescence intensity,[6]; [24],16.5 MFI
same,fluorescence intensity,[6]; [25],14.5 MFI
same,fluorescence intensity,[6]; [26],14.5 MFI
same,fluorescence intensity,[6]; [27],15.5 MFI
same,fluorescence intensity,[6]; [28],15.5 MFI
same,fluorescence intensity,[6]; [29],18 MFI
same,fluorescence intensity,[6]; [30],22 MFI
same,fluorescence intensity,[6]; [31],47 MFI
same,fluorescence intensity,[7]; [24],15 MFI
same,fluorescence intensity,[7]; [25],20.2 MFI
same,fluorescence intensity,[7]; [26],57.2 MFI
same,fluorescence intensity,[7]; [27],204 MFI
same,fluorescence intensity,[7]; [28],816 MFI
same,fluorescence intensity,[7]; [29],3180 MFI
same,fluorescence intensity,[7]; [30],11700 MFI
same,fluorescence intensity,[7]; [31],8330 MFI
same,fluorescence intensity,[8]; [24],12.5 MFI
same,fluorescence intensity,[8]; [25],13.8 MFI
same,fluorescence intensity,[8]; [26],14 MFI
same,fluorescence intensity,[8]; [27],14 MFI
same,fluorescence intensity,[8]; [28],14 MFI
same,fluorescence intensity,[8]; [29],13.5 MFI
same,fluorescence intensity,[8]; [30],17.5 MFI
same,fluorescence intensity,[8]; [31],44.5 MFI
same,fluorescence intensity,[9]; [24],15 MFI
same,fluorescence intensity,[9]; [25],15.8 MFI
same,fluorescence intensity,[9]; [26],17.2 MFI
same,fluorescence intensity,[9]; [27],17.5 MFI
same,fluorescence intensity,[9]; [28],16.5 MFI
same,fluorescence intensity,[9]; [29],18.2 MFI
same,fluorescence intensity,[9]; [30],19.5 MFI
same,fluorescence intensity,[9]; [31],34.5 MFI
same,fluorescence intensity,[10]; [24],24.2 MFI
same,fluorescence intensity,[10]; [25],26 MFI
same,fluorescence intensity,[10]; [26],27.5 MFI
same,fluorescence intensity,[10]; [27],25.8 MFI
same,fluorescence intensity,[10]; [28],25 MFI
same,fluorescence intensity,[10]; [29],29 MFI
same,fluorescence intensity,[10]; [30],32.5 MFI
same,fluorescence intensity,[10]; [31],49.5 MFI
same,fluorescence intensity,[11]; [24],17 MFI
same,fluorescence intensity,[11]; [25],16.8 MFI
same,fluorescence intensity,[11]; [26],18.5 MFI
same,fluorescence intensity,[11]; [27],16.8 MFI
same,fluorescence intensity,[11]; [28],16.5 MFI
same,fluorescence intensity,[11]; [29],16.2 MFI
same,fluorescence intensity,[11]; [30],27 MFI
same,fluorescence intensity,[11]; [31],154 MFI
same,fluorescence intensity,[12]; [24],16.5 MFI
same,fluorescence intensity,[12]; [25],17.2 MFI
same,fluorescence intensity,[12]; [26],17.2 MFI
same,fluorescence intensity,[12]; [27],18 MFI
same,fluorescence intensity,[12]; [28],17.8 MFI
same,fluorescence intensity,[12]; [29],17.5 MFI
same,fluorescence intensity,[12]; [30],17.2 MFI
same,fluorescence intensity,[12]; [31],21.5 MFI
same,fluorescence intensity,[13]; [24],20 MFI
same,fluorescence intensity,[13]; [25],19.5 MFI
same,fluorescence intensity,[13]; [26],17.5 MFI
same,fluorescence intensity,[13]; [27],18.8 MFI
same,fluorescence intensity,[13]; [28],19 MFI
same,fluorescence intensity,[13]; [29],19 MFI
same,fluorescence intensity,[13]; [30],20.2 MFI
same,fluorescence intensity,[13]; [31],30 MFI
same,fluorescence intensity,[14]; [24],17.8 MFI
same,fluorescence intensity,[14]; [25],16.5 MFI
same,fluorescence intensity,[14]; [26],16 MFI
same,fluorescence intensity,[14]; [27],15.5 MFI
same,fluorescence intensity,[14]; [28],14.8 MFI
same,fluorescence intensity,[14]; [29],14.5 MFI
same,fluorescence intensity,[14]; [30],14.5 MFI
same,fluorescence intensity,[14]; [31],21.5 MFI
same,fluorescence intensity,[15]; [24],11.5 MFI
same,fluorescence intensity,[15]; [25],12.5 MFI
same,fluorescence intensity,[15]; [26],12 MFI
same,fluorescence intensity,[15]; [27],12.5 MFI
same,fluorescence intensity,[15]; [28],13.5 MFI
same,fluorescence intensity,[15]; [29],14.5 MFI
same,fluorescence intensity,[15]; [30],20.5 MFI
same,fluorescence intensity,[15]; [31],65.5 MFI
same,fluorescence intensity,[16]; [24],13.5 MFI
same,fluorescence intensity,[16]; [25],13.5 MFI
same,fluorescence intensity,[16]; [26],14 MFI
same,fluorescence intensity,[16]; [27],12.5 MFI
same,fluorescence intensity,[16]; [28],13.5 MFI
same,fluorescence intensity,[16]; [29],14.5 MFI
same,fluorescence intensity,[16]; [30],13.5 MFI
same,fluorescence intensity,[16]; [31],16 MFI
same,fluorescence intensity,[17]; [24],17 MFI
same,fluorescence intensity,[17]; [25],17 MFI
same,fluorescence intensity,[17]; [26],16 MFI
same,fluorescence intensity,[17]; [27],17 MFI
same,fluorescence intensity,[17]; [28],15 MFI
same,fluorescence intensity,[17]; [29],15.5 MFI
same,fluorescence intensity,[17]; [30],19.5 MFI
same,fluorescence intensity,[17]; [31],40.5 MFI
same,fluorescence intensity,[18]; [24],17 MFI
same,fluorescence intensity,[18]; [25],18 MFI
same,fluorescence intensity,[18]; [26],18.2 MFI
same,fluorescence intensity,[18]; [27],19.5 MFI
same,fluorescence intensity,[18]; [28],15.5 MFI
same,fluorescence intensity,[18]; [29],18 MFI
same,fluorescence intensity,[18]; [30],18.5 MFI
same,fluorescence intensity,[18]; [31],37 MFI
same,fluorescence intensity,[19]; [24],21 MFI
same,fluorescence intensity,[19]; [25],19 MFI
same,fluorescence intensity,[19]; [26],18.8 MFI
same,fluorescence intensity,[19]; [27],18.5 MFI
same,fluorescence intensity,[19]; [28],18.5 MFI
same,fluorescence intensity,[19]; [29],19.5 MFI
same,fluorescence intensity,[19]; [30],20.5 MFI
same,fluorescence intensity,[19]; [31],22 MFI
same,fluorescence intensity,[20]; [24],26 MFI
same,fluorescence intensity,[20]; [25],17 MFI
same,fluorescence intensity,[20]; [26],17.2 MFI
same,fluorescence intensity,[20]; [27],16.8 MFI
same,fluorescence intensity,[20]; [28],20 MFI
same,fluorescence intensity,[20]; [29],18.8 MFI
same,fluorescence intensity,[20]; [30],19.2 MFI
same,fluorescence intensity,[20]; [31],22.8 MFI
same,fluorescence intensity,[21]; [24],14.5 MFI
same,fluorescence intensity,[21]; [25],16 MFI
same,fluorescence intensity,[21]; [26],16.5 MFI
same,fluorescence intensity,[21]; [27],17 MFI
same,fluorescence intensity,[21]; [28],15 MFI
same,fluorescence intensity,[21]; [29],16 MFI
same,fluorescence intensity,[21]; [30],17.5 MFI
same,fluorescence intensity,[21]; [31],40 MFI
same,fluorescence intensity,[22]; [24],24 MFI
same,fluorescence intensity,[22]; [25],26 MFI
same,fluorescence intensity,[22]; [26],23.8 MFI
same,fluorescence intensity,[22]; [27],24.8 MFI
same,fluorescence intensity,[22]; [28],26 MFI
same,fluorescence intensity,[22]; [29],26 MFI
same,fluorescence intensity,[22]; [30],37.5 MFI
same,fluorescence intensity,[22]; [31],140 MFI
same,fluorescence intensity,[23]; [24],23.8 MFI
same,fluorescence intensity,[23]; [25],25 MFI
same,fluorescence intensity,[23]; [26],24 MFI
same,fluorescence intensity,[23]; [27],24.2 MFI

# Copied from the entries so far (3 entries):
binder,measurement,setting,value
B1,fluorescence intensity,[2]; [31],37 MFI
same,fluorescence intensity,[3]; [24],15.5 MFI
same,fluorescence intensity,[3]; [25],16 MFI

# Reformatted bar-delimited: entries from further up
binder | measurement | setting | value
B1 | fluorescence intensity | [5]; [25] | 28 MFI
same | fluorescence intensity | [5]; [26] | 29 MFI
same | fluorescence intensity | [5]; [27] | 28 MFI

# Reprinted at random: five entries already listed.
binder,measurement,setting,value
B1,fluorescence intensity,[18]; [31],37 MFI
same,fluorescence intensity,[13]; [27],18.8 MFI
same,fluorescence intensity,[4]; [28],25.8 MFI
same,fluorescence intensity,[16]; [25],13.5 MFI
same,fluorescence intensity,[23]; [26],24 MFI
